Source: the supplement of paper PMC7661543
± gives the standard deviation of the averaged measurements. The effect of the compound repeats well; differences between the knockouts mostly do not.

Tested on: BT-20
Experiment: relative cell number vs DMSO control (72 h) (% of DMSO); higher = less growth inhibition (more cells)
Protocol: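 QMAP-Seq: a pool of 5 breast cancer cell lines (ZR-75-1, SKBR3, HCC-38, MDA-MB-231, BT-20), each carrying 12 doxycycline-inducible Cas9 sgRNA perturbations (11 knockouts plus non-targeting sgNT), was treated with compounds for 72 h at four 10-fold doses (10 nM-10 uM or 1 nM-1 uM range). Barcodes were amplified and sequenced, and cell number was interpolated from 293T spike-in standard curves. The result is expressed as % of the median of DMSO wells. Two biological replicates.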

[1] = sgRNA knockout: sgATF3, 1000 nM
[2] = sgRNA knockout: sgATF3, 10000 nM
[3] = sgRNA knockout: sgATF4, 1000 nM
[4] = sgRNA knockout: sgATF4, 10000 nM
[5] = sgRNA knockout: sgATF6, 1000 nM
[6] = sgRNA knockout: sgATF6, 10000 nM
[7] = sgRNA knockout: sgATG7, 1000 nM
[8] = sgRNA knockout: sgATG7, 10000 nM
[9] = sgRNA knockout: sgERN1, 1000 nM
[10] = sgRNA knockout: sgERN1, 10000 nM
[11] = sgRNA knockout: sgHSF1, 1000 nM
[12] = sgRNA knockout: sgHSF1, 10000 nM
[13] = sgRNA knockout: sgHSF2, 1000 nM
[14] = sgRNA knockout: sgHSF2, 10000 nM
[15] = sgRNA knockout: sgKEAP1, 100 nM
[16] = sgRNA knockout: sgKEAP1, 1000 nM
[17] = sgRNA knockout: sgKEAP1, 10000 nM
[18] = sgRNA knockout: sgNFE2L2, 10 nM
[19] = sgRNA knockout: sgNFE2L2, 100 nM
[20] = sgRNA knockout: sgNFE2L2, 1000 nM
[21] = sgRNA knockout: sgNFE2L2, 10000 nM
[22] = sgRNA knockout: sgSLC35F2, 10 nM
[23] = sgRNA knockout: sgSLC35F2, 100 nM
[24] = sgRNA knockout: sgSLC35F2, 1000 nM
[25] = sgRNA knockout: sgSLC35F2, 10000 nM
[26] = sgRNA knockout: sgXBP1, 1000 nM
[27] = sgRNA knockout: sgXBP1, 10000 nM

Compound: O=C(O)CCCc1ccc(N(CCCl)CCCl)cc1 [Chlorambucil]
- relative cell number (sgRNA knockout: sgATF3, 10 nM): 89.9 ± 12
- relative cell number (sgRNA knockout: sgATF3, 100 nM): 101 ± 3.6
- relative cell number [1]: 94 ± 13
- relative cell number [2]: 88.3 ± 12
- relative cell number (sgRNA knockout: sgATF4, 10 nM): 95.3 ± 4.3
- relative cell number (sgRNA knockout: sgATF4, 100 nM): 91.7 ± 7.2
- relative cell number [3]: 106 ± 6
- relative cell number [4]: 68.6 ± 5.2
- relative cell number (sgRNA knockout: sgATF6, 10 nM): 84.7 ± 20
- relative cell number (sgRNA knockout: sgATF6, 100 nM): 91.3 ± 13
- relative cell number [5]: 103 ± 3.7
- relative cell number [6]: 80.6 ± 3.5
- relative cell number (sgRNA knockout: sgATG7, 10 nM): 83.8 ± 9.3
- relative cell number (sgRNA knockout: sgATG7, 100 nM): 93.9 ± 3.8
- relative cell number [7]: 112 ± 10
- relative cell number [8]: 96.9 ± 6.1
- relative cell number (sgRNA knockout: sgERN1, 10 nM): 96.6 ± 3.2
- relative cell number (sgRNA knockout: sgERN1, 100 nM): 89.1 ± 2.5
- relative cell number [9]: 98.7 ± 17
- relative cell number [10]: 77.5 ± 8.2
- relative cell number (sgRNA knockout: sgHSF1, 10 nM): 93.3 ± 4
- relative cell number (sgRNA knockout: sgHSF1, 100 nM): 98.3 ± 6.6
- relative cell number [11]: 102 ± 4.4
- relative cell number [12]: 83.998 ± 0.027
- relative cell number (sgRNA knockout: sgHSF2, 10 nM): 89.2 ± 2.2
- relative cell number (sgRNA knockout: sgHSF2, 100 nM): 90.8 ± 17
- relative cell number [13]: 78 ± 13
- relative cell number [14]: 91.3 ± 1.8
- relative cell number (sgRNA knockout: sgKEAP1, 10 nM): 92 ± 14
- relative cell number [15]: 87.3 ± 7.3
- relative cell number [16]: 104 ± 11
- relative cell number [17]: 85.5 ± 12
- relative cell number [18]: 91.6 ± 8.1
- relative cell number [19]: 89.3 ± 0.33
- relative cell number [20]: 95.2 ± 7.2
- relative cell number [21]: 78.1 ± 1.8
- relative cell number [22]: 89.4 ± 5.6
- relative cell number [23]: 108 ± 5.3
- relative cell number [24]: 83.6 ± 16
- relative cell number [25]: 92.2 ± 3.3
- relative cell number (sgRNA knockout: sgXBP1, 10 nM): 89.8 ± 13
- relative cell number (sgRNA knockout: sgXBP1, 100 nM): 96.4 ± 9.9
- relative cell number [26]: 93.8 ± 12
- relative cell number [27]: 80.9 ± 11

Compound: CC(=O)Nc1nc(C)c(-c2ccc(Cl)c(S(=O)(=O)NCCO)c2)s1 [PIK93]
- relative cell number (sgRNA knockout: sgATF3, 10 nM): 96.9 ± 2.4
- relative cell number (sgRNA knockout: sgATF3, 100 nM): 117 ± 3.2
- relative cell number [1]: 82.5 ± 1
- relative cell number [2]: 65 ± 8.1
- relative cell number (sgRNA knockout: sgATF4, 10 nM): 134 ± 6.7
- relative cell number (sgRNA knockout: sgATF4, 100 nM): 98.8 ± 23
- relative cell number [3]: 79.7 ± 7
- relative cell number [4]: 66.5 ± 2.4
- relative cell number (sgRNA knockout: sgATF6, 10 nM): 99.9 ± 20
- relative cell number (sgRNA knockout: sgATF6, 100 nM): 73.9 ± 24
- relative cell number [5]: 93.4 ± 14
- relative cell number [6]: 69.2 ± 1.8
- relative cell number (sgRNA knockout: sgATG7, 10 nM): 105 ± 1.3
- relative cell number (sgRNA knockout: sgATG7, 100 nM): 108 ± 11
- relative cell number [7]: 89.5 ± 3.5
- relative cell number [8]: 74.8 ± 19
- relative cell number (sgRNA knockout: sgERN1, 10 nM): 109 ± 22
- relative cell number (sgRNA knockout: sgERN1, 100 nM): 101 ± 9.1
- relative cell number [9]: 92 ± 18
- relative cell number [10]: 76.3 ± 9.8
- relative cell number (sgRNA knockout: sgHSF1, 10 nM): 115 ± 19
- relative cell number (sgRNA knockout: sgHSF1, 100 nM): 109 ± 9.9
- relative cell number [11]: 90 ± 2.1
- relative cell number [12]: 65.4 ± 8.5
- relative cell number (sgRNA knockout: sgHSF2, 10 nM): 104 ± 19
- relative cell number (sgRNA knockout: sgHSF2, 100 nM): 116 ± 24
- relative cell number [13]: 84.34 ± 0.43
- relative cell number [14]: 63.629 ± 0.036
- relative cell number (sgRNA knockout: sgKEAP1, 10 nM): 102 ± 6.3
- relative cell number [15]: 107 ± 8.9
- relative cell number [16]: 86.1 ± 6.8
- relative cell number [17]: 71.6 ± 6.8
- relative cell number [18]: 99.2 ± 6.9
- relative cell number [19]: 104 ± 36
- relative cell number [20]: 94.8 ± 10
- relative cell number [21]: 62.7 ± 15
- relative cell number [22]: 100 ± 14
- relative cell number [23]: 107 ± 33
- relative cell number [24]: 95.8 ± 5.2
- relative cell number [25]: 72.5 ± 1.2
- relative cell number (sgRNA knockout: sgXBP1, 10 nM): 112 ± 21
- relative cell number (sgRNA knockout: sgXBP1, 100 nM): 95.2 ± 19
- relative cell number [26]: 109.8 ± 0.41
- relative cell number [27]: 65.4 ± 8
